# This is one part of the list. The main result of the screen is listed elsewhere. These columns were measured beside it and carry no call. The list favours compounds with an active or inconclusive main result. The note in brackets gives the kind of curve behind each potency; many fits are weak.
# Test: IkB Signaling
# Settings: ABC-DLBCL IkBa-CBG/CBR dual luciferase ratio (green luciferase fused to IkBa over red control in OCI-Ly3 lymphoma cells), 4 h
# Source text: NIH Molecular Libraries Screening Centers Network [MLSCN]
# NIH Chemical Genomics Center [NCGC]
# Nuclear factor kappa-B (NF-kappa-B) plays an important role in normal B cell development and survival. Diffuse large B cell lymphoma (DLBCL) is the most commonly observed type of non-Hodgkin's lymphoma. Gene expression analysis has identified an activated B cell-like subtype of DLBCL (ABC-DLBCL) which expresses known NF-kappa-B target genes. […] However, targets upstream of IKK have been largely unexplored and so nodes upstream of IKK in the NF-kappa-B pathway remain untested due to the lack of chemical probes.
# A cell-sensor assay for I-kappa-B-alpha stabilization was developed with NIH investigator Dr. R. Eric Davis in Dr. Louis M. Staudt's laboratory. The assay uses green (CBG68) and red (CBR) emitting beetle luciferases [Chroma-Glo(TM) developed by Promega Corp.] where the green luciferase is fused to I-kappa-B-alpha and the red luciferase is present in its native state. Both luciferase genes are stably present in the OCI-Ly3 human ABC DLBCL cell line, but their expression is under the control of tetracycline-inducible promoters. Following the addition of doxycycline to induce expression of the luciferases, the green luminescence in control cultures rises only slowly because the CBG fusion partner I-kappa-B-alpha is targeted by IKK activity for rapid degradation. In contrast, green luminescence rises rapidly in the presence of proteasome inhibitors or IKK inhibitors. The rise in red luminescence of CBR is not affected by proteasome or IKK inhibitors, and serves as normalization for cell number and nonspecific effects. Compounds were screened as a concentration-titration series that ranged from 57 uM to 0.7 nM.
# NCGC Assay Protocol Summary:
# Cells were seeded in 1536-well plates at 5000 cells/3ul in IMDM medium containing 0.5% FBS, w/o phenol red, L-glutamine, 25 mM HEPES, 3 mg/ml sodium bicarbonate. After centrifugation for 1 min. at 1000 rpm, 23 nl of compounds or DMSO were delivered to each well using a pin tool. Then 1ul 80ng/ml doxycycline was dispensed into white solid 1536-well plates and the plates were incubated at 37C/5% C02 in a cell incubator for 4 hrs. Then 4 ul Chroma-Glo luminescent substrate mix (Promega) was added to each well. The plate was incubated at R.T. for 10-15 min. The plates were measured on a ViewLux plate reader for green luminescence (540/20 nm filter) and red luminescence (618/8 nm filter). The green and red luminescent signals were corrected for red and green luminescence filter overlap using previously determined filter calibration constants (determined using the procedure outlined in the Promega Technical Manual). The %Activity was determined from the ratio of corrected green/red luminescent values. Green luminescent and ratio %Activity was determined by normalizing to the difference in signal between basal cells (0% Activity) and cells incubated with 10 uM of the proteasome inhibitor MG-132 (100% Activity). Red luminescent %Activity was normalized to the difference between red luminesence in basal cells (0%Activity) and zero luminescence (-100% Activity).
# Concentration-response curves were fitted to the signals arising from the green luminescence (I-kappa-B-alpha-luciferase fusion; IkB-luc) and the red luminescence (unfused luciferase; luc) as well as the calculated ratio. The concentration-effect curves were then classified based on curve quality (r2), response magnitude and degree of measured activity. Compounds were then categorized based on their concentration-response curves for all three datasets (Ikb-luc, luc and ratio).
# Keywords: IKK, I-kappa-B, IkB, IkBa, cytotoxicity, luminescence, MLSMR, MLSCN, NIH Roadmap, qHTS, NCGC
# [1] = measured here: control luc red channel unless noted
smiles,measurement,setting,value
COc1cccc(C(=O)NCC(c2cccnc2)N2CCN(c3ccccc3OC)CC2)c1 (stereo not drawn),AC50,[1],"25.1 µM [falling, partial curve]"
Cc1onc(-c2c(F)cccc2Cl)c1C(=O)Nc1ccc(OC(C)C)cc1,AC50,[1],"15.8 µM [falling, partial curve]"
O=C1CCCc2cc(S(=O)(=O)NCC3CCC(C(=O)NCc4ccccc4Cl)CC3)ccc2N1 (stereo not drawn),AC50,[1],"25.1 µM [falling, single point]"
COc1ccc(CCNC(=O)c2cc3c(s2)-c2ccccc2OC3)cc1OC,AC50,[1],"15.8 µM [falling, partial curve]"
Cc1ccc(-n2nc3c(N4CCC(C(=O)NC(C)c5ccccc5)CC4)nnc(C)c3c2C)cc1 (stereo not drawn),AC50,[1],"2 µM [falling, full curve, poor fit]"
O=C(Cn1ccc2ccccc2c1=O)NCCC(=O)Nc1ccc(F)cc1F,AC50,[1],"12.6 µM [falling, partial curve, poor fit]"
CCOC(=O)c1cccc(NC(=O)c2cc(S(=O)(=O)N3CCCC(C)C3)cn2C)c1 (stereo not drawn),AC50,[1],"5.01 µM [falling, partial curve]"
CC1=C(C(N)=O)C(c2ccc(C)cc2)n2nc(SCc3ccccc3F)nc2N1 (stereo not drawn),AC50,[1],"0.0501 µM [falling, full curve, poor fit]"
Cc1ccc2cc(C#N)c(N3CCCN(C(=O)C4CCCO4)CC3)nc2c1C (stereo not drawn),AC50,[1],"25.1 µM [falling, single point]"
CCOC(=O)C1CCCN(C(=O)Cn2ncc3c(C)n(Cc4ccccc4F)c(C)c3c2=O)C1 (stereo not drawn),AC50,[1],"15.8 µM [falling, partial curve]"
COc1cccc(CNC(=O)CSc2nnc(C)c3c(C)n(-c4ccccc4)nc23)c1OC,AC50,[1],"20 µM [falling, partial curve]"
Cc1cc(C)cc(NC2=C(c3ccccc3)C(=O)c3ccccc32)c1,AC50,[1],"7.94 µM [falling, full curve]"
O=C(CCCNS(=O)(=O)c1cccs1)N1CCN(c2cccc(Cl)c2)CC1,AC50,[1],"12.6 µM [falling, partial curve]"
CC[C@@H](C)[C@@H](C(=O)Nc1ccc(C)cc1)N1Cc2ccccc2C1=O,AC50,[1],"39.8 µM [falling, single point]"
CCCn1c(=O)c2c(nc3n2CCN3c2ccc(C)cc2)n(C)c1=O,AC50,[1],"20 µM [falling, single point]"
Cc1ccc(CN(C(=O)COc2ccc(Cl)cc2C)C2CCS(=O)(=O)C2)o1 (stereo not drawn),AC50,[1],"10 µM [falling, partial curve]"
CCOC(=O)c1c(NC(=O)c2cc(CC(C)C)on2)sc(C(C)=O)c1C,AC50,[1],"0.316 µM [rising, full curve]"
Cc1ccc(NC(=O)c2cc3c(=O)n(Cc4ccco4)ccc3nc2C)cc1C,AC50,[1],"20 µM [falling, partial curve]"
Cn1c(=O)oc2cc(S(=O)(=O)NCCC(=O)NCCc3ccc(Cl)cc3)ccc21,AC50,[1],"7.94 µM [falling, partial curve]"
CSc1ccc(C2c3c(oc4cc(C)cc(C)c4c3=O)C(=O)N2CCO)cc1 (stereo not drawn),AC50,[1],"3.16 µM [falling, single point]"
Cc1nc2sc(C(=O)N(C)c3ccccc3)c(NC(=O)c3ccccc3Cl)c2c(C)c1C,AC50,[1],"12.6 µM [falling, partial curve]"
COc1ccc(C2C(C(=O)Nc3ccccc3OC)=C(C)Nc3c(C(=O)Nc4ccccc4)cnn32)c(OC)c1 (stereo not drawn),AC50,[1],"12.6 µM [falling, single point]"
Cc1ccc(NC(=O)c2c(C)oc3ccc(O)c(CN4CCOCC4)c23)c(C)c1,AC50,[1],"39.8 µM [falling, single point]"
CCN(CC)Cc1c(NC(=O)c2ccc(OC)cc2)sc2c1CCCC2,AC50,[1],"25.1 µM [falling, partial curve]"
Cc1ccc(C)c(-c2nnc(NC(=O)c3ccc4c(c3)OCCO4)o2)c1,AC50,measured here: IkB-luc green channel,"5.01 µM [rising, full curve]"
same,AC50,measured here: control luc red channel,"6.31 µM [rising, single point]"
CCOC(=O)C1CCN(C(=O)CSCc2nc(-c3ccc(OCC)cc3)oc2C)CC1,AC50,[1],"39.8 µM [falling, single point]"
O=C(CN1CCN(c2ccccc2)CC1)Nc1nnc(-c2ccccc2)s1,AC50,[1],"31.6 µM [falling, partial curve]"
Cc1ccc(NC(=O)CN2C(=O)CCc3cc(S(=O)(=O)N4CCCCC4)ccc32)cc1C,AC50,[1],"39.8 µM [falling, single point]"
Cc1cc(C)cc(-n2c(C)nc3cc(C(=O)NCc4ccccc4Cl)ccc32)c1,AC50,[1],"31.6 µM [falling, partial curve]"
COc1cccc(C(=O)Nc2ccc(-n3nncc3-c3ccccc3)cc2)c1,AC50,[1],"39.8 µM [falling, single point]"
O=S(=O)(Nc1cccc2cccnc12)c1ccc(S(=O)(=O)N2CCCC2)cc1,AC50,[1],"7.94 µM [rising, partial curve] [measured here: IkB-luc green channel]"
Cn1c(C(=O)N2CCCC(C(=O)NCc3ccc4c(c3)OCO4)C2)cc2sccc21 (stereo not drawn),AC50,[1],"25.1 µM [falling, partial curve]"
Cc1ccc2nc(NC(=O)CN(C)S(=O)(=O)c3ccc(Br)s3)sc2c1,AC50,[1],"10 µM [falling, partial curve]"
Cc1ccc2[nH]c(C(=O)Nc3ccccc3)cc2c1,AC50,[1],"5.01 µM [falling, partial curve]"
CC(CN1CCOCC1)OC(=O)c1ccc(Br)cc1 (stereo not drawn),AC50,[1],"6.31 µM [falling, single point]"
COc1cc2cc(C(c3nnnn3C(C)(C)C)N3CCc4ccccc4C3)c(=O)[nH]c2cc1OC (stereo not drawn),AC50,[1],"39.8 µM [rising, single point] [measured here: IkB-luc green channel]"
COc1ccc(-c2[nH]c(-c3ccccc3)nc2SCC(=O)Nc2ccc3c(c2)OCCO3)cc1,AC50,[1],"15.8 µM [falling, partial curve]"
CC(C)c1ccc2c(c1)CC[C@@H]1[C@@](C)(CN)CCC[C@@]21C,AC50,[1],"3.98 µM [falling, single point]"
CCc1ccc(-c2nc(CN3CCCC(C(=O)NCc4ccc(C)cc4)C3)c(C)o2)cc1 (stereo not drawn),AC50,[1],"15.8 µM [falling, partial curve]"
COc1ccc(-c2cc3nc(C)c(CCC(=O)Nc4cccc(C(F)(F)F)c4)c(C)n3n2)c(OC)c1,AC50,[1],"0.158 µM [falling, full curve]"
CCn1cc2nc(SCC(=O)Nc3ccccc3F)n(Cc3ccc(C)cc3)c(=O)c2n1,AC50,[1],"20 µM [falling, partial curve]"
Cc1ccnc(NC(=O)c2c(C)oc3ncn(CC(C)C)c(=O)c23)c1,AC50,[1],"0.2 µM [rising, full curve]"
Cc1ccc(CNC(=O)Nc2cn(CC(C)C)c(=O)c3ccccc23)cc1,AC50,[1],"10 µM [falling, partial curve]"
CN(C(=O)Cn1cc(S(=O)(=O)N2CCN(c3ccccc3F)CC2)c2ccccc2c1=O)c1ccc(Cl)cc1,AC50,[1],"7.94 µM [falling, partial curve, poor fit]"
COc1cc(-c2nnc(SCC(=O)N(Cc3ccccc3)C(C)(C)C)o2)cc(OC)c1OC,AC50,[1],"20 µM [falling, partial curve]"
Cc1ccc(C(=O)Nc2ccccc2C(=O)O)cc1S(=O)(=O)N1CCCCCC1,AC50,[1],"3.98 µM [falling, partial curve]"
O=C(Nc1sc2c(c1C(=O)Nc1ccc(Cl)cc1)CCCC2)c1cccs1,AC50,[1],"3.98 µM [falling, full curve]"
Cc1ccccc1-c1nc(CS(=O)(=O)CC(=O)NCc2ccc3c(c2)OCO3)c(C)o1,AC50,[1],"12.6 µM [falling, partial curve]"
CCc1ccc2oc(-c3cccc(NC(=O)c4cc5ccccc5o4)c3)nc2c1,AC50,[1],"3.16 µM [falling, partial curve]"
Cc1nc2ccccc2c(=O)n1CCCn1ccnc1,AC50,[1],"7.94 µM [rising, partial curve]"
Cc1nc2c(C(=O)O)cnn2c(C)c1Cc1ccccc1,AC50,[1],"0.158 µM [falling, full curve]"
CCCc1nn2c(=O)cc(COC(=O)c3ccc(NC(=O)CCc4ccccc4)cc3)nc2s1,AC50,[1],"0.794 µM [falling, full curve]"
Cc1c(NC(=O)C(C)OC(=O)c2cc3c4ccccc4n(C)c3s2)c(=O)n(-c2ccccc2)n1C (stereo not drawn),AC50,[1],"5.01 µM [falling, partial curve]"
O=C(Nc1nnc(C(F)(F)F)s1)c1cccnc1,AC50,[1],"2.51 µM [falling, full curve]"
O=C1c2ccccc2C(=O)N1CSc1nnnn1-c1ccccc1,AC50,[1],"39.8 µM [rising, single point]"
N#Cc1c(N)[nH]c(=S)c(C#N)c1-c1ccccc1,AC50,[1],"39.8 µM [falling, single point]"
COc1ccc(NC(=O)Cn2c(=O)cc(C)c3c(C)nn(-c4cccc(Cl)c4C)c32)cc1OC,AC50,[1],"1.58 µM [rising, partial curve, poor fit]"
O=C(NC1CC(=O)N(c2ccc3c(c2)OCCO3)C1)c1c(F)cccc1Cl (stereo not drawn),AC50,[1],"5.01 µM [rising, partial curve]"
O=C(NCCc1csc(-c2ccc(F)cc2)n1)c1cccs1,AC50,[1],"20 µM [falling, partial curve]"
CCOC(=O)c1cc(-c2ccccc2)n(CC(=O)NC2CCC(C)CC2)c1C (stereo not drawn),AC50,[1],"39.8 µM [falling, single point]"
Cc1c(NC(=O)Nc2ccc(Cl)c(Cl)c2)c(=O)n(-c2ccccc2)n1C,AC50,[1],"20 µM [falling, partial curve]"
Cc1ccc2c(c1)c(=O)c(C(=O)c1ccc3c(c1)OCO3)cn2Cc1cccc(F)c1,AC50,[1],"39.8 µM [falling, single point]"

# 4 neighbouring records out of the list so far:
smiles,measurement,setting,value
O=C(NC1CC(=O)N(c2ccc3c(c2)OCCO3)C1)c1c(F)cccc1Cl (stereo not drawn),AC50,[1],"5.01 µM [rising, partial curve]"
O=C(NCCc1csc(-c2ccc(F)cc2)n1)c1cccs1,AC50,[1],"20 µM [falling, partial curve]"
CCOC(=O)c1cc(-c2ccccc2)n(CC(=O)NC2CCC(C)CC2)c1C (stereo not drawn),AC50,[1],"39.8 µM [falling, single point]"
Cc1c(NC(=O)Nc2ccc(Cl)c(Cl)c2)c(=O)n(-c2ccccc2)n1C,AC50,[1],"20 µM [falling, partial curve]"

# Looked up one by one from the list above:
smiles,measurement,setting,value
Cc1ccc(CN(C(=O)COc2ccc(Cl)cc2C)C2CCS(=O)(=O)C2)o1 (stereo not drawn),AC50,[1],"10 µM [falling, partial curve]"
Cc1ccc(C)c(-c2nnc(NC(=O)c3ccc4c(c3)OCCO4)o2)c1,AC50,measured here: IkB-luc green channel,"5.01 µM [rising, full curve]"
